These are yes or no findings as the source states them, for the method shown. Binding seen in cells or lysates may run through a third protein. These calls come from enrichment with a bait or labelling near it, and not all partners need be listed.

Sequences of proteins named here, by UniProt entry; tags and fusion partners are left off.
UniProt Q9Z204: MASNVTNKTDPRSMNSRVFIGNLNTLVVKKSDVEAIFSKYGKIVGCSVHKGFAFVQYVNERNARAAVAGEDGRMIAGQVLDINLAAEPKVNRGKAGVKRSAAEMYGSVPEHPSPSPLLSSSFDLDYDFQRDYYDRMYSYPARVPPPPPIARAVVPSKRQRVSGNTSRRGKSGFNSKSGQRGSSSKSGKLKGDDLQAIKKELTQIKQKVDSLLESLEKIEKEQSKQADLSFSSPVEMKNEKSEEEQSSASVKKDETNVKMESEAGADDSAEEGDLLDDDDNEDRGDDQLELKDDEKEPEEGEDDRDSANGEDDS

Here are results for 5 molecules from PMC11967818.

This assay concerns the target hnRNPC (mouse (endogenous in P8 testes)) (UniProt Q9Z204). Kind of assay: affinity purification with mass spectrometry; P8 mouse testis lysate; immunoprecipitation with anti-hnRNPC antibody or IgG on Protein G magnetic beads; SDS-PAGE, in-gel trypsin digestion, LC-MS/MS (Q Exactive), MaxQuant against Mus musculus.

B1: SF3B3 (protein, UniProt Q921M3 1-1217)
chain: MFLYNLTLQRATGISFAIHGNFSGTKQQEIVVSRGKILELLRPDPNTGKVHTLLTVEVFGVIRSLMAFRLTGGTKDYIVVGSDSGRIVILEYQPSKNMFEKIHQETFGKSGCRRIVPGQFLAVDPKGRAVMISAIEKQKLVYILNRDAAARLTISSPLEAHKANTLVYHVVGVDVGFENPMFACLEMDYEEADNDPTGEAAANTQQTLTFYELDLGLNHVVRKYSEPLEEHGNFLITVPGGSDGPSGVLICSENYITYKNFGDQPDIRCPIPRRRNDLDDPERGMIFVCSATHKTKSMFFFLAQTEQGDIFKITLETDEDMVTEIRLKYFDTVPVAAAMCVLKTGFLFVASEFGNHYLYQIAHLGDDDEEPEFSSAMPLEEGDTFFFQPRPLKNLVLVDELDSLSPILFCQIADLANEDTPQLYVACGRGPRSSLRVLRHGLEVSEMAVSELPGNPNAVWTVRRHIEDEFDAYIIVSFVNATLVLSIGETVEEVTDSGFLGTTPTLSCSLLGDDALVQVYPDGIRHIRADKRVNEWKTPGKKTIVKCAVNQRQVVIALTGGELVYFEMDPSGQLNEYTERKEMSADVVCMSLANVPPGEQRSRFLAVGLVDNTVRIISLDPSDCLQPLSMQALPAQPESLCIVEMGGTEKQDELGERGSIGFLYLNIGLQNGVLLRTVLDPVTGDLSDTRTRYLGSRPVKLFRVRMQGQEAVLAMSSRSWLSYSYQSRFHLTPLSYETLEFASGFASEQCPEGIVAISTNTLRILALEKLGAVFNQVAFPLQYTPRKFVIHPESNNLIIIETDHNAYTEATKAQRKQQMAEEMVEAAGEDERELAAEMAAAFLNENLPESIFGAPKAGNGQWASVIRVMNPIQGNTLDLVQLEQNEAAFSVAVCRFSNTGEDWYVLVGVAKDLILSPRSVAGGFVYTYKLVNNGEKLEFLHKTPVEEVPAAIAPFQGRVLIGVGKLLRVYDLGKKKLLRKCENKHIANYISGIQTIGHRVIVSDVQESFIWVRYKRNENQLIIFADDTYPRWVTTASLLDYDTVAGADKFGNICVVRLPPNTNDEVDEDPTGNKALWDRGLLNGASQKAEVIMNYHVGETVLSLQKTTLIPGGSESLVYTTLSGGIGILVPFTSHEDHDFFQHVEMHLRSEHPPLCGRDHLSFRSYYFPVKNVIDGDLCEQFNSMEPNKQKNVSEELDRTPPEVSKKLEDIRTRYAF
For the molecule B1, the binding result is recorded as “binds”.

B2: SF3A1 (protein, UniProt Q8K4Z5 1-791)
chain: MQAGPVQAVPPPPPVATESKQPIEEEASSKEDPTPSKPVVGIIYPPPEVRNIVDKTASFVARNGPEFEARIRQNEINNPKFNFLNPNDPYHAYYRHKVSEFKEGKAQEPSAAIPKVMQQQQQATQQQLPQKVQAQVIQETIVPKEPPPEFEFIADPPSISAFDLDVVKLTAQFVARNGRQFLTQLMQKEQRNYQFDFLRPQHSLFNYFTKLVEQYTKILIPPKGLFSKLKKEAENPREVLDQVCYRVEWAKFQERERKKEEEEKEKERVAYAQIDWHDFVVVETVDFQPNEQGNFPPPTTPEELGARILIQERYEKFGESEEVEMEVESDEEDQEKAEETPSQLDQDTQVQDMDEGSDDEEEGQKVPPPPETPMPPPLPPTPDQVIVRKDYDPKASKPLPPAPAPDEYLVSPITGEKIPASKMQEHMRIGLLDPRWLEQRDRSIREKQSDDEVYAPGLDIESSLKQLAERRTDIFGVEETAIGKKIGEEEIQKPEEKVTWDGHSGSMARTQQAAQANITLQEQIEAIHKAKGLVPEDDTKEKIGPSKPNEIPQQPPPPSSATNIPSSAPPITSVPRPPAMPPPVRTTVVSAVPVMPRPPMASVVRLPPGSVIAPMPPIIHAPRINVVPMPPAAPPIMAPRPPPMIVPTAFVPAPPVAPVPAPAPMPPVHPPPPMEDEPPSKKLKTEDSLMPEEEFLRRNKGPVSIKVQVPNMQDKTEWKLNGQGLVFTLPLTDQVSVIKVKIHEATGMPAGKQKLQYEGIFIKDSNSLAYYNMASGAVIHLALKERGGRKK
Take B2: the binding result was “binds”.

B3: SRSF7 (protein, UniProt Q8BL97 1-267)
chain: MRSSARGRPLQAATAFFLSLFFFLRRFERGFWLWGGDSETKVYVGNLGTGAGKGELERAFSYYGPLRTVWIARNPPGFAFVEFEDPRDAEDAVRGLDGKVICGSRVRVELSTGMPRRSRFDRPPARRPFDPNDRCYECGEKGHYAYDCHRYSRRRRSRSRSRSHSRSRGRRYSRSRSRSRGRRSRSASPRRSRSVSLRRSRSASLRRSRSGSIIGSRYFQSRSRSRSRSRSISRPRSSRSKSRSPSPKRSRSPSGSPHRSASPERMD
B3: the binding result is recorded as “binds”.

B4: BUD31 (protein, UniProt Q6PGH1 1-144)
chain: MPKVKRSRKAPPDGWELIEPTLDELDQKMREAETEPHEGKRKVESLWPIFRIHHQKTRYIFDLFYKRKAISRELYEYCIKEGYADKNLIAKWKKQGYENLCCLRCIQTRDTNFGTNCICRVPKSKLEVGRIIECTHCGCRGCSG
As to B4, the binding entry was “binds”.

B5: SRSF3 (protein, UniProt P84104 1-164)
chain: MHRDSCPLDCKVYVGNLGNNGNKTELERAFGYYGPLRSVWVARNPPGFAFVEFEDPRDAADAVRELDGRTLCGCRVRVELSNGEKRSRNRGPPPSWGRRPRDDYRRRSPPPRRRSPRRRSFSRSRSRSLSRDRRRERSLSRERNHKPSRSFSRSRSRSRSNERK
As to B5, the binding result is given as “binds”.
